Test results: publication PMC12706091
Results are given in words; binding and its absence hold for the method and conditions named. In cells and extracts the contact can be indirect. A yes stands for co-enrichment or nearness to the bait. Other partners may have been found. For some assays here: A no says only that the protein was not detected with the bait. Sequences can lack the tags named with a protein.

Chains of the proteins cited; added tags and fusions are not shown.
UniProt B5DF89: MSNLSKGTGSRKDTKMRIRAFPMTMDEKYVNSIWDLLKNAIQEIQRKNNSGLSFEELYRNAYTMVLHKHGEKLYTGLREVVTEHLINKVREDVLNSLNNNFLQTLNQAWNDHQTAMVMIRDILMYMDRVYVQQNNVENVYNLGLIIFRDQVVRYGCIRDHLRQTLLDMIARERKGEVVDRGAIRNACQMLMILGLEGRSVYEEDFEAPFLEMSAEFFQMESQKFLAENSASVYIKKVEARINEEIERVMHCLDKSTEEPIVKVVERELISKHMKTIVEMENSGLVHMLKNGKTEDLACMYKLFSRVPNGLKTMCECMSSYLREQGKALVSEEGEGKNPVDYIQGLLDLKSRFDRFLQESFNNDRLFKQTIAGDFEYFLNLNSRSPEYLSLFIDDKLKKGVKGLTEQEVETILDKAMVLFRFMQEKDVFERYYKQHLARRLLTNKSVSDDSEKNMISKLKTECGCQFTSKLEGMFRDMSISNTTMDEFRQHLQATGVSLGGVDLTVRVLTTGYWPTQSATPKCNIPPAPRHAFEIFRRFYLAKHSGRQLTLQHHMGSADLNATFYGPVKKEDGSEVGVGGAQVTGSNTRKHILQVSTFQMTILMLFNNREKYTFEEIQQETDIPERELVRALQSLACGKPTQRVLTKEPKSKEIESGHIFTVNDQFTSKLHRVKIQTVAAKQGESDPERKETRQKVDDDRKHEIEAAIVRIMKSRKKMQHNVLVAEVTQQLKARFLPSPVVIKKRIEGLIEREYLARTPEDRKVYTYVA

T1: GST-TIA1 (UniProt P31483)
T1 sequence: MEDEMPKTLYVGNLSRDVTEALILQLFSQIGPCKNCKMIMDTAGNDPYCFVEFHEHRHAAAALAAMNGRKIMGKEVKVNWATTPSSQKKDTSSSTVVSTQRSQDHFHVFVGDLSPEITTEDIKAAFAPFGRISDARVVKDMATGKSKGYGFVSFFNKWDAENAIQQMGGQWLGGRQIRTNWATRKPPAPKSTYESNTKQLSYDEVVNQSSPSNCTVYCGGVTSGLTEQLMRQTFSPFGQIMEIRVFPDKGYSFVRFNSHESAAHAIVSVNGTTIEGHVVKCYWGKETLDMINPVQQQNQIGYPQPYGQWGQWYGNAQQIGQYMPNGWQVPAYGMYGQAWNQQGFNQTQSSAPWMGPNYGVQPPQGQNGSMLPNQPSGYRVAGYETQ

T2: GST-ANXA7 (UniProt Q6IRJ7)
T2 sequence: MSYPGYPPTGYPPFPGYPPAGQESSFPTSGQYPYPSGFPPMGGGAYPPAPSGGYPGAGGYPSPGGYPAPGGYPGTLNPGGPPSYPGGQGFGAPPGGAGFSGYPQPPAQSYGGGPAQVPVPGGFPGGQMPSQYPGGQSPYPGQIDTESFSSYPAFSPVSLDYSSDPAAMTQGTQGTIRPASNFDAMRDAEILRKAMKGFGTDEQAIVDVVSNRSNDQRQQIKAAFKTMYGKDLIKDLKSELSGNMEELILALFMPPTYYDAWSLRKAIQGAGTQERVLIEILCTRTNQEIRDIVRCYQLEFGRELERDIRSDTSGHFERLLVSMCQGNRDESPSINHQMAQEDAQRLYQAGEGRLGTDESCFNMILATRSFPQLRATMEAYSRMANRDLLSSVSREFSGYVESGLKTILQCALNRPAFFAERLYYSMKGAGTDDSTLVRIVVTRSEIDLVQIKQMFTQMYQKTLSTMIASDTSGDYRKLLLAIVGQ


Key:
GST-TIA1 = target: T1, GST-TIA1; experiment: affinity purification with mass spectrometry; purified GST fusion (GST as control) added to P14 rat cortical lysate in RIPA buffer, 4 °C, captured on glutathione resin, NP40 wash buffer; LC-MS/MS, hits at log2FC >=1.2 and P <=0.05; only the target purified
GST-ANXA7 = target: T2, GST-ANXA7; experiment: as above

binding (GST-TIA1) | binding (GST-ANXA7) | Molecule
binds |  | CUL3, endogenous (from UniProt B5DF89 1-768)
 | binds | T-cell intracellular antigen 1 (TIA1), endogenous
no binding | binds | cytoplasmic dynein intermediate chain 1B (DIC1B), endogenous
binds |  | Annexin A7 (ANXA7), endogenous (protein, UniProt Q6IRJ7 1-485) MSYPGYPPTGYPPFPGYPPAGQESSFPTSGQYPYPSGFPPMGGGAYPPAPSGGYPGAGGYPSPGGYPAPGGYPGTLNPGGPPSYPGGQGFGAPPGGAGFSGYPQPPAQSYGGGPAQVPVPGGFPGGQMPSQYPGGQSPYPGQIDTESFSSYPAFSPVSLDYSSDPAAMTQGTQGTIRPASNFDAMRDAEILRKAMKGFGTDEQAIVDVVSNRSNDQRQQIKAAFKTMYGKDLIKDLKSELSGNMEELILALFMPPTYYDAWSLRKAIQGAGTQERVLIEILCTRTNQEIRDIVRCYQLEFGRELERDIRSDTSGHFERLLVSMCQGNRDESPSINHQMAQEDAQRLYQAGEGRLGTDESCFNMILATRSFPQLRATMEAYSRMANRDLLSSVSREFSGYVESGLKTILQCALNRPAFFAERLYYSMKGAGTDDSTLVRIVVTRSEIDLVQIKQMFTQMYQKTLSTMIASDTSGDYRKLLLAIVGQ
